Source: article PMC12077163
Results are given in words; binding and its absence hold for the method and conditions named. Some binding calls cover weakened binding; strength is not graded here.

Protein sequences, listed by entry. Tags and fused reporters are not part of them.
UniProt C8VTS4: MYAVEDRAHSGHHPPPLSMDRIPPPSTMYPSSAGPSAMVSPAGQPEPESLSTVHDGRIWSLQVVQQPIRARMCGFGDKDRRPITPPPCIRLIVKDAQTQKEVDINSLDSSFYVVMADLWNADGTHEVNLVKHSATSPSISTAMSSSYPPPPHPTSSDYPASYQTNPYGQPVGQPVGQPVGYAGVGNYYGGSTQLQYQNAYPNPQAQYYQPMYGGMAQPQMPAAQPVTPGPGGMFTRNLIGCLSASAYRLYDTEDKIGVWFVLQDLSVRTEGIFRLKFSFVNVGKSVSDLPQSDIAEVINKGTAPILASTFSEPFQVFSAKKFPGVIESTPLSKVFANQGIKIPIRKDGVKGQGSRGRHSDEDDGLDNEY

What was measured:
Experiment in all cases: two-hybrid; Gal4 AD and BD fusions co-expressed in S. cerevisiae AH109; 10-fold serial dilutions spotted on SC-Leu-Trp-His plates, 30°C; growth through the HIS3 reporter
[1] = molecular target: T1, Aspergillus nidulans VosA residues 1-190 (Aspergillus nidulans) (UniProt Q5BBX1)
T1 sequence: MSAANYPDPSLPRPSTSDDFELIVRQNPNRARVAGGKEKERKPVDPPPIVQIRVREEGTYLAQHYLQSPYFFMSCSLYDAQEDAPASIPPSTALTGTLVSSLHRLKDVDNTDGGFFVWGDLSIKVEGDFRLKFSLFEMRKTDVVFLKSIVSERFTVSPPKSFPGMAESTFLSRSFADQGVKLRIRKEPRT

[2] = molecular target: Aspergillus nidulans VelB (velvet-like B), wild type, full length (Aspergillus nidulans) (UniProt C8VTS4)
[3] = molecular target: T2, Aspergillus nidulans VeA residues 1-200 (Aspergillus nidulans) (UniProt C8VTV4)
T2 sequence: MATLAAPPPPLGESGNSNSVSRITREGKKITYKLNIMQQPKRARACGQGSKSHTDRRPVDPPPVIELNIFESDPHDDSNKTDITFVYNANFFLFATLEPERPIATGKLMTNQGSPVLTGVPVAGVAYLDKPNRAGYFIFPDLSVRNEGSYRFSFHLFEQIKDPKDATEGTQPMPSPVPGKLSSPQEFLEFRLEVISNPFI

- binding [1]: binds
- binding [2]: binds
- binding [3]: binds
Substance: Aspergillus nidulans VelB (velvet-like B), wild type, full length (from UniProt C8VTS4 1-369)
